Measurements published in publication doi:10.1101/715409 (bioRxiv, 2019).
These are yes or no findings as the source states them, for the method shown. In cells and extracts the contact can be indirect. Some entries that bind do so weakly or less than the wild type. For some of these results: Sequences can lack the tags named with a protein.

T1: Bud6CRU (Saccharomyces cerevisiae) (UniProt P41697)
T1 sequence: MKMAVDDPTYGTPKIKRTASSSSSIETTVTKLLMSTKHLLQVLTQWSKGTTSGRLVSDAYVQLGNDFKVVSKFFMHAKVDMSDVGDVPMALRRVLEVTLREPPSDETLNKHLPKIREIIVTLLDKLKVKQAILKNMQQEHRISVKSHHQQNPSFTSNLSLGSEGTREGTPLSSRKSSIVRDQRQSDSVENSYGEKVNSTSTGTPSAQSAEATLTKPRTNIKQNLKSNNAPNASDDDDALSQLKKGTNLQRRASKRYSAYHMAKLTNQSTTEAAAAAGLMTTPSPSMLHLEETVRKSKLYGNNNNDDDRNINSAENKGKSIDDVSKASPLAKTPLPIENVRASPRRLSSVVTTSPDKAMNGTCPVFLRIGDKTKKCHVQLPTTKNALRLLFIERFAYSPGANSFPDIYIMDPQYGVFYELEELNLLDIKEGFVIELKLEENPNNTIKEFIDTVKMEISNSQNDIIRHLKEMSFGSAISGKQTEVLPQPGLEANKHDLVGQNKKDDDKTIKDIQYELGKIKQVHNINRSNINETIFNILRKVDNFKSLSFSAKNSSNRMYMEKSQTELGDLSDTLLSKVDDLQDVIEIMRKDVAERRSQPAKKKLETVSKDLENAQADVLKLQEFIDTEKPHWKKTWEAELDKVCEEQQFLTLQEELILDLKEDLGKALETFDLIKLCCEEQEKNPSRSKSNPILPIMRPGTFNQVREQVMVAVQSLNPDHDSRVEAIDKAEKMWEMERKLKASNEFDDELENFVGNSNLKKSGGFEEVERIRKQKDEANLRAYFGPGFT

T2: CRU fusion to the N-terminal 854 residues of Bni1 (Saccharomyces cerevisiae) (UniProt P41832)
T2 sequence: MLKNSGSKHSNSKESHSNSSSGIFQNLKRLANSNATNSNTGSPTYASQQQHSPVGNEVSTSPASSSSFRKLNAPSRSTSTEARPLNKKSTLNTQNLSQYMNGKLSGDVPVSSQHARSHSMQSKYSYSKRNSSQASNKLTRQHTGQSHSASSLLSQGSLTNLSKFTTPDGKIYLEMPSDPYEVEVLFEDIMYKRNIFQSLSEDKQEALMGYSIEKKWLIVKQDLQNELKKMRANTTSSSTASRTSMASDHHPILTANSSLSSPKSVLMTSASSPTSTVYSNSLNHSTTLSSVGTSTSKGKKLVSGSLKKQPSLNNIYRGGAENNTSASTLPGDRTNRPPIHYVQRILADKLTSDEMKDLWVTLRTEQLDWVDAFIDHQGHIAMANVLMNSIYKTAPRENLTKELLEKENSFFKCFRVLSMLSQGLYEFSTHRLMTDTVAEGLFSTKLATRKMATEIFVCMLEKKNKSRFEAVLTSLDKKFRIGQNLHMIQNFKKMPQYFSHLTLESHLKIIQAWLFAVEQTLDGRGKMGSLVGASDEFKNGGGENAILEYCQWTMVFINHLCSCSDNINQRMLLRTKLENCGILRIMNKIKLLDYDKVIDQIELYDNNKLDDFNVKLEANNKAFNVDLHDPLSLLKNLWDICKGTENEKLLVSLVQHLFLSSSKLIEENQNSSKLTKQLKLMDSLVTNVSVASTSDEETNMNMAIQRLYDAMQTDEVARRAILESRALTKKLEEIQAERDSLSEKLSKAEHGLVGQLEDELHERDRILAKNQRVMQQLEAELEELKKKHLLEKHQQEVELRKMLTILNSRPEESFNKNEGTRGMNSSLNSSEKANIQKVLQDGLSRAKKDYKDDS

T3: GST fusion to Bni1 (1-854) (Saccharomyces cerevisiae) (UniProt P41832)
T3 sequence: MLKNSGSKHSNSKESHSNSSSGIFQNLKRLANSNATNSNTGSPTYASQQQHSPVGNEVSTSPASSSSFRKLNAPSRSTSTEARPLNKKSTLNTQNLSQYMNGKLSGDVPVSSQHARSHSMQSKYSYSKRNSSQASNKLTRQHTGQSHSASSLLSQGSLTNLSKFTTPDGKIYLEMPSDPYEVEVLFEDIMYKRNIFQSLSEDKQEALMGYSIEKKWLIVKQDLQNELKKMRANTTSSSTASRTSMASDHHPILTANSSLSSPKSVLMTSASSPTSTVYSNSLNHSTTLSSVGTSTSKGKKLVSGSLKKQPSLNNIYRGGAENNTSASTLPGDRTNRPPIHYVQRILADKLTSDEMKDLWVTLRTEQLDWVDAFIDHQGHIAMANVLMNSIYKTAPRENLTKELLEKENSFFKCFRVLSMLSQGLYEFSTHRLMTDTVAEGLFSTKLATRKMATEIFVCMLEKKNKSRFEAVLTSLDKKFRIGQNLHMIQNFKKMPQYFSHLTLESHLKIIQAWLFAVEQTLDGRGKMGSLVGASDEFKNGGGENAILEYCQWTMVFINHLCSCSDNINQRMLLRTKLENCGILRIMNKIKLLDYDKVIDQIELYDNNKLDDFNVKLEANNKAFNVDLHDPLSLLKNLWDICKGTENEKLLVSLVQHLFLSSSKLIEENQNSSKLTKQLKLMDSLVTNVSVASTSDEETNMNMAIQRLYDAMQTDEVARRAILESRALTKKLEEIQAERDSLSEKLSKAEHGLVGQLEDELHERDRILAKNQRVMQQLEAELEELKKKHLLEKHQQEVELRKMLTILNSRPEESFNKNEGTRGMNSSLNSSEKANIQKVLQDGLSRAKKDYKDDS


Key:
[1] = target: Bni1CRU (Saccharomyces cerevisiae) (UniProt P41832); assay: split reporter
[2] = target: T1, Bud6CRU (Saccharomyces cerevisiae); assay: split reporter
[3] = target: T2, CRU fusion to the N-terminal 854 residues of Bni1 (Saccharomyces cerevisiae); assay: split reporter
[4] = target: T3, GST fusion to Bni1 (1-854) (Saccharomyces cerevisiae); assay: pull-down

binding [1] | binding [2] | binding [3] | binding [4] | Binder
binds | binds | binds |  | Nub-Boi1 (protein, UniProt P38041 1-980) MSLEGNTLGKGAKSFPLYIAVNQYSKRMEDELNMKPGDKIKVITDDGEYNDGWYYGRNLRTKEEGLYPAVFTKRIAIEKPENLHKSPTQESGNSGVKYGNLNDSASNIGKVSSHQQENRYTSLKSTMSDIDKALEELRSGSVEQEVSKSPTRVPEVSTPQLQDEQTLIQEKTRNEENTTHDSLFSSTADLNLSSESLKNISKSNISTKSLEPSSESVRQLDLKMAKSWSPEEVTDYFSLVGFDQSTCNKFKEHQVSGKILLELELEHLKELEINSFGIRFQIFKEIRNIKSAIDSSSNKLDADYSTFAFENQAAQLMPAATVNRDEIQQQISSKCNKLSSESSDRKSSSVTTELQRPSSVVVNPNFKLHDPAEQILDMTEVPNLFADKDIFESPGRAPKPPSYPSPVQPPQSPSFNNRYTNNNARFPPQTTYPPKNKNPTVYSNGLIPNSSTSSDNSTGKFKFPAMNGHDSNSRKTTLTSATIPSINTVNTDESLPAISNISSNATSHHPNRNSVVYNNHKRTESGSSFVDLFNRISMLSPVKSSFDEEETKQPSKASRAVFDSARRKSSYGHSRDASLSEMKKHRRNSSILSFFSSKSQSNPTSPTKQTFTIDPAKMTSHSRSQSNSYSHARSQSYSHSRKHSLVTSPLKTSLSPINSKSNIALAHSETPTSSNNKEAVSQPSEGKHKHKHKHKSKHKHKNSSSKDGSSEEKSKKKLFSSTKESFVGSKEFKRSPSELTQKSTKSILPRSNAKKQQTSAFTEGIRSITAKESMQTADCSGWMSKKGTGAMGTWKQRFFTLHGTRLSYFTNTNDEKERGLIDITAHRVLPASDDDRLISLYAASLGKGKYCFKLVPPQPGSKKGLTFTEPRVHYFAVENKSEMKAWLSAIIKATIDIDTSVPVISSYATPTIPLSKAQTLLEEARLQTQLRDAEEEEGRDQFGWDDTQNKRNSNYPIEQDQFETSDYLESSAFEYPGGRL
 |  |  | binds | 6xHis Boi1_(1-300) (domain or fragment, UniProt P38041 1-300) MSLEGNTLGKGAKSFPLYIAVNQYSKRMEDELNMKPGDKIKVITDDGEYNDGWYYGRNLRTKEEGLYPAVFTKRIAIEKPENLHKSPTQESGNSGVKYGNLNDSASNIGKVSSHQQENRYTSLKSTMSDIDKALEELRSGSVEQEVSKSPTRVPEVSTPQLQDEQTLIQEKTRNEENTTHDSLFSSTADLNLSSESLKNISKSNISTKSLEPSSESVRQLDLKMAKSWSPEEVTDYFSLVGFDQSTCNKFKEHQVSGKILLELELEHLKELEINSFGIRFQIFKEIRNIKSAIDSSSNKL
